The text below walks through data of article PMC8628696, “Stable DNA Aptamer–Metal–Organic Framework as Horseradish Peroxidase Mimic for Ultra-Sensitive Detection of Carcinoembryonic Antigen in Serum”.

The data set concerns the target T1, carcinoembryonic antigen (CEA) (human) (UniProt P06731).
T1 sequence (looked up, limits assumed): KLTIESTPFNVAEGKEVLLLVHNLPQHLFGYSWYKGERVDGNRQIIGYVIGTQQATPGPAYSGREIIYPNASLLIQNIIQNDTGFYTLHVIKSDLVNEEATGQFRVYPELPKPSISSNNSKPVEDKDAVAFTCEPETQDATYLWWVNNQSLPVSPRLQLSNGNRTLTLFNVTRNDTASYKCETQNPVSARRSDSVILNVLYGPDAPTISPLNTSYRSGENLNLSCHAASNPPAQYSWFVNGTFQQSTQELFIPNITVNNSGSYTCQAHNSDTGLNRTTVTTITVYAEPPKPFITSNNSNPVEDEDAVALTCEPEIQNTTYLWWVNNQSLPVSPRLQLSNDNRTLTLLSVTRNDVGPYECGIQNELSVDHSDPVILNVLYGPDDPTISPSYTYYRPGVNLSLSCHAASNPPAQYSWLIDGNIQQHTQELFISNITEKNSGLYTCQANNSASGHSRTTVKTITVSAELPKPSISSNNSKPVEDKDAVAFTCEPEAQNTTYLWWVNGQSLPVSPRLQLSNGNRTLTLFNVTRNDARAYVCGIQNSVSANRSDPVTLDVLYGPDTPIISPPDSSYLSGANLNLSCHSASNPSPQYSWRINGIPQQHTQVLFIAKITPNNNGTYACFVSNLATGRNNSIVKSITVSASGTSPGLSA
Kind of data set: colorimetric antibody-aptamer sandwich assay. The note with it: MOF-grafted single strand 25 ug/mL, CEA 20 ng/mL, lower signal than CEAapt-TDN-MOF; 5' phosphate; Colorimetric sandwich assay: TMB 2 mM, H2O2 0.2 M, detection time 20 min; binding buffer; commercial protein; single-stranded DNA.

The comparison behind a weaker result is the experiment's own reference, which may not be listed here. Tags and fusion partners may be left off the protein sequences shown.

Consider “TTTTTTTATACCAGCTTATTCAA [CEAapt strand J on PCN-222(Fe) MOF]”, for which the binding result was “binds more weakly”.
